Data as given in PubChem BioAssay AID1259405 (NCATS, 2018).
In all, the deposit lists about 50,000 reagents; below is a part drawn at random. Of all reagents, about 4,000 (8%) were called active. 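Mouse siRNA library applied to hamster cells; one well for each siRNA.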 Entries without a mark were called inactive. The numbers tell different reagents against one gene apart.

- Purpose: 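Knock-downs that lift recombinant protein yield in hamster ovary cells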 (primary screen)
- System: Chinese hamster CHO-K1 ovary cells with stable secreted eGFP expression
- Reagent: single siRNA against mouse genes, 0.8 pmol siRNA per well (2 µl of 400 nM stock)
- Timing: 3 days
- Measured: 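Percent of the per-plate non-targeting control median for intracellular GFP per well by laser scanning cytometry and for cell viability by ATP luminescence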
- Direction: GFP, % of control: higher = more GFP per well, higher productivity; viability (ATP), % of control: higher = more viable cells (more ATP)
- Rule for the call: 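a knock-down is called active if GFP reaches 120% or more of non-targeting control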

Which result is listed for St6galnac2 #1?
GFP, % of control: 42.7; viability (ATP), % of control: 63.6

With St6galnac2 #2, how do the results read?
GFP, % of control: 124 (active); viability (ATP), % of control: 82.7

What is on record for St6galnac2 #3?
GFP, % of control: 83.9; viability (ATP), % of control: 91.4

For Ccdc97 #1, what was measured?
GFP, % of control: 55.3; viability (ATP), % of control: 67.9

With Ccdc97 #2, how do the results read?
GFP, % of control: 69.5; viability (ATP), % of control: 59.6

With Ccdc97 #3, what does the deposit list?
GFP, % of control: 9.04; viability (ATP), % of control: 18.2

What did the screen give for A330041J22Rik #1?
GFP, % of control: 125 (active); viability (ATP), % of control: 67

What did the screen give for A330041J22Rik #2?
GFP, % of control: 66.8; viability (ATP), % of control: 55.4

What is on record for A330041J22Rik #3?
GFP, % of control: 73.2; viability (ATP), % of control: 85.6

Ordered by “viability (ATP), % of control” (descending): some entries from above.
St6galnac2 #3 — GFP, % of control = 83.9; viability (ATP), % of control = 91.4
St6galnac2 #2 — GFP, % of control = 124 (active); viability (ATP), % of control = 82.7
Ccdc97 #1 — GFP, % of control = 55.3; viability (ATP), % of control = 67.9
St6galnac2 #1 — GFP, % of control = 42.7; viability (ATP), % of control = 63.6
Ccdc97 #2 — GFP, % of control = 69.5; viability (ATP), % of control = 59.6

The list goes on.
With Armc12 #1, what does the deposit list?
GFP, % of control: 63.5; viability (ATP), % of control: 84.2

What is on record for Armc12 #2?
GFP, % of control: 56.3; viability (ATP), % of control: 34.7

For Armc12 #3, what does the deposit list?
GFP, % of control: 84.6; viability (ATP), % of control: 95.8

What did the screen give for Nipsnap1 #1?
GFP, % of control: 52.3; viability (ATP), % of control: 65.1

With Nipsnap1 #2, how do the results read?
GFP, % of control: 93.6; viability (ATP), % of control: 61.3

For Nipsnap1 #3, what was measured?
GFP, % of control: 68.6; viability (ATP), % of control: 62.4

For Or9r3 #1, how do the results read?
GFP, % of control: 39.7; viability (ATP), % of control: 53.8

How did the screen score Or9r3 #2?
GFP, % of control: 72.9; viability (ATP), % of control: 84.6

With Or9r3 #3, how do the results read?
GFP, % of control: 19.8; viability (ATP), % of control: 22.5

What is on record for Igfbpl1 #1?
GFP, % of control: 102; viability (ATP), % of control: 81.3

With Igfbpl1 #2, what was measured?
GFP, % of control: 117; viability (ATP), % of control: 79.3

How did the screen score Igfbpl1 #3?
GFP, % of control: 98.7; viability (ATP), % of control: 86.5

What is on record for Suv39h1 #1?
GFP, % of control: 51.7; viability (ATP), % of control: 75.8

What is on record for Suv39h1 #2?
GFP, % of control: 80.4; viability (ATP), % of control: 96.5

With Fbxo34 #1, what was measured?
GFP, % of control: 53.4; viability (ATP), % of control: 59.8

For Fbxo34 #2, what was measured?
GFP, % of control: 67.9; viability (ATP), % of control: 94.4

With Fbxo34 #3, what does the deposit list?
GFP, % of control: 87.2; viability (ATP), % of control: 58.9

What did the screen give for Fxr1 #1?
GFP, % of control: 87.9; viability (ATP), % of control: 107

With Fxr1 #2, what was measured?
GFP, % of control: 66.9; viability (ATP), % of control: 59.5

With Fxr1 #3, what was measured?
GFP, % of control: 57.5; viability (ATP), % of control: 40.6
